Measurements: article PMC11024185
Results are given in words; binding and its absence hold for the method and conditions named. In cells and extracts the contact can be indirect. These calls come from enrichment with a bait or labelling near it, and not all partners need be listed. Where a sequence is shown, tags or fusion partners need not be part of it.

T1: Dbp10 (2xStrep-bdNEDD8-DBP10) (S. cerevisiae) (UniProt Q12389)
T1 sequence: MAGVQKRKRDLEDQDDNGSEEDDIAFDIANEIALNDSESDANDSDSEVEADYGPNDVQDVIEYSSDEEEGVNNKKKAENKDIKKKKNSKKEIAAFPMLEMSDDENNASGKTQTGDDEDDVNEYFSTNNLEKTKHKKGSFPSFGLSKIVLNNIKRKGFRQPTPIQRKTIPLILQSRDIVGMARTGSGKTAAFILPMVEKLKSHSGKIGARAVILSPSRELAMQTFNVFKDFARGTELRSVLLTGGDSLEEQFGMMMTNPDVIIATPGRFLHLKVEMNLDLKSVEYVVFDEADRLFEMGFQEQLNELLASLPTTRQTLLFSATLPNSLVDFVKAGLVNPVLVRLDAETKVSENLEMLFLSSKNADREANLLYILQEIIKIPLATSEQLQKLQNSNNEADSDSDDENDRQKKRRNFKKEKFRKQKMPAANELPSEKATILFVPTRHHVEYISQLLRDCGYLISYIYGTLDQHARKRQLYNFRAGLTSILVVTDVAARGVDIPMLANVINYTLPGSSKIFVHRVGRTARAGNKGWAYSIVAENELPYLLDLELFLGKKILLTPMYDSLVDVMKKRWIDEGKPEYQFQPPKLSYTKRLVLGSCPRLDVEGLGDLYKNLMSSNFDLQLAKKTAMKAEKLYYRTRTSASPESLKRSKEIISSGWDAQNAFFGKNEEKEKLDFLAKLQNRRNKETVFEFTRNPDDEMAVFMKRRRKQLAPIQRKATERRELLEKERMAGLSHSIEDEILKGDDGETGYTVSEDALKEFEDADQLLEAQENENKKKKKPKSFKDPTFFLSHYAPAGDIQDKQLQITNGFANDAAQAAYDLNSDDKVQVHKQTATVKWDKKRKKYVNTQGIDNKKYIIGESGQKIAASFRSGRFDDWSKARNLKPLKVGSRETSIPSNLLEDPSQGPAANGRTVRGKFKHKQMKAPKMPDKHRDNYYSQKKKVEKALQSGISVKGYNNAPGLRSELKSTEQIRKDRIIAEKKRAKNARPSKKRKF

T2: Dbp10 (wild type, overexpressed, N-terminal 3xStrep-sfGFP-bdNEDD-MYC tag) (S. cerevisiae) (UniProt Q12389)
T2 sequence: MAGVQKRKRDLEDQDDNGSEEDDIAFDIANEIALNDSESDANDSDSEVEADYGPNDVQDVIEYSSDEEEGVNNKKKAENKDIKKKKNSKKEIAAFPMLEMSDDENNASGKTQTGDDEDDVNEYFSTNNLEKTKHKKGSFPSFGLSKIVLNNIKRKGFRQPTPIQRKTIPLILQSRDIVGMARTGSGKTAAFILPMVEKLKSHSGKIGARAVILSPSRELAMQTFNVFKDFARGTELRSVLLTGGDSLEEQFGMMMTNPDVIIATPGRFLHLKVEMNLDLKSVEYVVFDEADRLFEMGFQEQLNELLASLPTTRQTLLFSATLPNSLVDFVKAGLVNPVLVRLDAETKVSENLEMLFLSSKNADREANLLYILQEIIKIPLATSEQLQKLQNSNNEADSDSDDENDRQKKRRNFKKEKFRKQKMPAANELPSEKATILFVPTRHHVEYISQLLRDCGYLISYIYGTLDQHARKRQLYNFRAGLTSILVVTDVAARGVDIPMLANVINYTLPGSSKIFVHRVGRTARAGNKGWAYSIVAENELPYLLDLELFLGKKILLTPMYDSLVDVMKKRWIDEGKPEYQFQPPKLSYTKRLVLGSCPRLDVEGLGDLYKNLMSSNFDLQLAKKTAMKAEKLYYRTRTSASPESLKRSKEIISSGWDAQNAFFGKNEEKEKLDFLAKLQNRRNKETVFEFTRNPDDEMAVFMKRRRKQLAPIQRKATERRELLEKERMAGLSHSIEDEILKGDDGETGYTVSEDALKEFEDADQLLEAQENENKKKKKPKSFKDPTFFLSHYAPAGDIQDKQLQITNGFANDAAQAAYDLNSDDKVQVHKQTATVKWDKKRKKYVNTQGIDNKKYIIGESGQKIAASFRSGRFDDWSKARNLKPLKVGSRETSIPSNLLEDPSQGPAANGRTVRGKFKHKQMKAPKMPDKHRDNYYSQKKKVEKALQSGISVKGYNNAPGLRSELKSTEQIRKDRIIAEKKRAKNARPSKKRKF

T3: Dbp10^R522V (slow-hydrolysis mutant, overexpressed, N-terminal 3xStrep-sfGFP-bdNEDD-MYC tag) (S. cerevisiae) (UniProt Q12389)
T3 sequence: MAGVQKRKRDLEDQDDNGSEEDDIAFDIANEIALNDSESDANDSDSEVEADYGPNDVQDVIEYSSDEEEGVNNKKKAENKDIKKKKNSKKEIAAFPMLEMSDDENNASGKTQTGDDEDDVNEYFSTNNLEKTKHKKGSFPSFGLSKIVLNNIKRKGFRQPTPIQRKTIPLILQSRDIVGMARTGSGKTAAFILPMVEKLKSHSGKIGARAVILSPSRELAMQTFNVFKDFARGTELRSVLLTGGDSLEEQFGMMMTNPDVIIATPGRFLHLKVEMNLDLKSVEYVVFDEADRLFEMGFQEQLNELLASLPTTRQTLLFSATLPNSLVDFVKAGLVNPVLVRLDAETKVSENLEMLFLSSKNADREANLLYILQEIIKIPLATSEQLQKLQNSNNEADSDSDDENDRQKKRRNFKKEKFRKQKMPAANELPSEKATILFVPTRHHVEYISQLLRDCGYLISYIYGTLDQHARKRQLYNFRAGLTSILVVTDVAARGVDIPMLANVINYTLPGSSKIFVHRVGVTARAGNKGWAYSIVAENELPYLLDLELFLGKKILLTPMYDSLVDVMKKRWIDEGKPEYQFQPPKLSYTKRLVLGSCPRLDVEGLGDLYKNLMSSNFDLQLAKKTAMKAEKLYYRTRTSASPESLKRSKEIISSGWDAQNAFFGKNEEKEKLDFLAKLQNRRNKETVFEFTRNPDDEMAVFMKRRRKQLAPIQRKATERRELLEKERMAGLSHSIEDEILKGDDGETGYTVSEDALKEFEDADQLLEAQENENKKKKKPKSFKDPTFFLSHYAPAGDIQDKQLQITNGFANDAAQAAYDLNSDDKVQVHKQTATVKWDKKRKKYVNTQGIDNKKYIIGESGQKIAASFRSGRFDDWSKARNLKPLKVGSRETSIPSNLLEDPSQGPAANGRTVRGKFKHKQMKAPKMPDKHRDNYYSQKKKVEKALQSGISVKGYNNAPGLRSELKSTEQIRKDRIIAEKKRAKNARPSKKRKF


What was measured:
[1] = biological target: T1, Dbp10 (2xStrep-bdNEDD8-DBP10) (S. cerevisiae); experiment: affinity purification with mass spectrometry; split-tag purification of pre-60S particles from SPB4-AID yeast without and with auxin (0.5 mM IAA, 45 min): IgG Sepharose on Noc2-2xProteinA, 3C cleavage, then Strep-Tactin on 2xStrep-Dbp10; buffers with 50 µM ADP-BeF3; Coomassie-stained 4-20% SDS-PAGE, bands named by molecular weight, ambiguous bands by mass spectrometry; auxin gave ~10-fold enrichment of the particle
[2] = biological target: T2, Dbp10 (wild type, overexpressed, N-terminal 3xStrep-sfGFP-bdNEDD-MYC tag) (S. cerevisiae); experiment: affinity purification with mass spectrometry; split tags on Brx1 and Dbp10 from yeast lysate after β-estradiol-induced overexpression of DBP10 or dbp10^R522V: IgG Sepharose (Brx1-2xProteinA), 3C protease cleavage, Strep-Tactin (Dbp10), elution with bdNEDD8 protease; Ribo-buffer (50 mM Bis-Tris-Propane HCl pH 8.0, 125 mM NaCl, 25 mM KCl, 10 mM MgCl2, 1 mM TCEP, NP-40); semi-quantitative mass spectrometry of pre-60S particles
[3] = biological target: T3, Dbp10^R522V (slow-hydrolysis mutant, overexpressed, N-terminal 3xStrep-sfGFP-bdNEDD-MYC tag) (S. cerevisiae); experiment: as above

Binder	binding [1]	binding [2]	binding [3]
Noc2-3xFLAG-3C-2xProteinA (protein, UniProt P39744 1-710) MGKVSKSTKKFQSKHLKHTLDQRRKEKIQKKRIQGRRGNKTDQEKADAAGTREQQQLKKSAKEEVFKDMSVETFFEKGIEIPKENKKLKKKTTKEQSDEDSSSSEEEEDMGQSMAKLAEKDPEFYKYLEENDKDLLDFAGTNPLDGIDSQDEGEDAERNSNIEEKSEQMELEKEKIELSLKLVRKWKKQLHDSPSLKLLRNIISAFKVAVNLNKEENIEDYKYAITDEKAFHELMFMVLKDVPQAIQKMAPYKIVKGARTLPNGGNVSRVSSIVKSHAGSLLILLNDITNTETAALVLHSVNELMPYLLSYRRILKELIKSIVGVWSTTRELETQIASFAFLINTTKEFKKSMLETTLKTTYSTFIKSCRKTNMRSMPLINFQKNSAAELFGIDEVLGYQVGFEYIRQLAIHLRNTMNATTKKSSKINSAEAYKIVYNWQFCHSLDFWSRVLSFACQPEKENGSESPLRQLIYPLVQVTLGVIRLIPTPQFFPLRFYLIKSLIRLSQNSGVFIPIYPLLSEILTSTAFTKAPKKSPNLAAFDFEHNIKCTQAYLNTKIYQEGLSEQFVDLLGDYFALYCKNIAFPELVTPVIISLRRYIKTSTNVKLNKRLSTVVEKLNQNSTFIQEKRSDVEFGPTNKSEVSRFLNDVAWNKTPLGSYVAVQREVKEEKARLMRESMEEQDKERETEEAKLLNSLESDDDNEDVEMSDA	binds	–	–
Brx1 (genomic C-terminal 3xFLAG-3C-2xProteinA tag) (protein, UniProt Q08235 1-291) MSSIYKALAGKSKDNKSEKKQGNVKQFMNKQRTLLISSRGVNYRHRHLIQDLSGLLPHSRKEPKLDTKKDLQQLNEIAELYNCNNVLFFEARKHQDLYLWLSKPPNGPTIKFYIQNLHTMDELNFTGNCLKGSRPVLSFDQRFESSPHYQLIKELLVHNFGVPPNARKSKPFIDHVMSFSIVDDKIWVRTYEISHSTKNKEEYEDGEEDISLVEIGPRFVMTVILILEGSFGGPKIYENKQYVSPNVVRAQIKQQAAEEAKSRAEAAVERKIKRRENVLAADPLSNDALFK	–	binds	binds
Rrp15 (protein, UniProt Q06511 1-250) MGSKHRVDTKDKKRTRKNAEFGREKRNSGNQELSNEPEKDTIMEGDEAEEDEQNSSSDESSKIIDNEQSDAEEDDDEEEEDDDFPRKKKSKNSKHDDGSTGFSAAVNAILSSHLKAYDRKDPIMARNKKVLKQSESEKLEYKAKKALLAEKKKLLGKARKTDIIPIASGEDRSENIRKVLEKETALRKIAQKGAVKLFNAILATQVKTEKEVSENLSEIKNKEEKKELITEVSKEKFLDLVKAAAGSDNE	–	binds	binds
Ssf1 (endogenous) (protein, UniProt P38789 1-453) MAKRRQKKRTHAQLTPEQEQGIPKSMVIRVGQTSLANHSLNQLVKDFRQIMQPHTAIKLKERKSNKLKDFVVMCGPLGVTHLFMFTQSEKTGNVSLKIARTPQGPTVTFQVLDYSLGRDIKKFLKRPKSLNNDDVLNPPLLVLNGFSTSKRSGEDDQDVNVEKVIVSMFQNIFPPLNPARTSLNSIKRVFMINKDRETGEISMRHYFIDIREVEISRNLKRLYKAKNNLSKTVPNLHRKEDISSLILDHDLGAYTSESEIEDDAIVRVVDNQDVKAKHSQSLKSQRTPVEKKDNKEREKETEEEDVEMEEPKPSENLQPTPRKKAIKLTELGPRLTLKLVKIEEGICSGKVLHHEFVQKSSEEIKALEKRHAAKMRLKEQRKKEQEENIAKKKAVKDAKKQRKLERRKARAAEGGEGQGKDDAMSDDESSSSDSEHYGSVPEDLDSDLFSEVE	–	binds	binds
Noc2 (endogenous) (protein, UniProt P39744 1-710) MGKVSKSTKKFQSKHLKHTLDQRRKEKIQKKRIQGRRGNKTDQEKADAAGTREQQQLKKSAKEEVFKDMSVETFFEKGIEIPKENKKLKKKTTKEQSDEDSSSSEEEEDMGQSMAKLAEKDPEFYKYLEENDKDLLDFAGTNPLDGIDSQDEGEDAERNSNIEEKSEQMELEKEKIELSLKLVRKWKKQLHDSPSLKLLRNIISAFKVAVNLNKEENIEDYKYAITDEKAFHELMFMVLKDVPQAIQKMAPYKIVKGARTLPNGGNVSRVSSIVKSHAGSLLILLNDITNTETAALVLHSVNELMPYLLSYRRILKELIKSIVGVWSTTRELETQIASFAFLINTTKEFKKSMLETTLKTTYSTFIKSCRKTNMRSMPLINFQKNSAAELFGIDEVLGYQVGFEYIRQLAIHLRNTMNATTKKSSKINSAEAYKIVYNWQFCHSLDFWSRVLSFACQPEKENGSESPLRQLIYPLVQVTLGVIRLIPTPQFFPLRFYLIKSLIRLSQNSGVFIPIYPLLSEILTSTAFTKAPKKSPNLAAFDFEHNIKCTQAYLNTKIYQEGLSEQFVDLLGDYFALYCKNIAFPELVTPVIISLRRYIKTSTNVKLNKRLSTVVEKLNQNSTFIQEKRSDVEFGPTNKSEVSRFLNDVAWNKTPLGSYVAVQREVKEEKARLMRESMEEQDKERETEEAKLLNSLESDDDNEDVEMSDA	–	binds	binds
Nug1 (protein, UniProt P40010 1-520) MRVRKRQSRRTSTKLKEGIKKKASAHRKKEKKMAKKDVTWRSRSKKDPGIPSNFPYKAKILEEIEAKKMKDLEERELAKQQRLEARKAAKEQGVDAMDEDMIEDDENGLAALVESAQQAAAEYEGTPSNDADVRDDELDVIDYNIDFYGEDVEGESELEKSRKAYDKIFKSVIDASDVILYVLDARDPESTRSRKVEEAVLQSQGKRLILILNKVDLIPPHVLEQWLNYLKSSFPTIPLRASSGAVNGTSFNRKLSQTTTASALLESLKTYSNNSNLKRSIVVGVIGYPNVGKSSVINALLARRGGQSKACPVGNEAGVTTSLREIKIDNKLKILDSPGICFPSENKKRSKVEHEAELALLNALPAKHIVDPYPAVLMLVKRLAKSDEMTESFKKLYEIPPIPANDADTFTKHFLIHVARKRGRLGKGGIPNLASAGLSVLNDWRDGKILGWVLPNTSAAASQQDKQNLSTINTGTKQAPIAANESTIVSEWSKEFDLDGLFSSLDKAIDASKDQDTMME	–	binds	binds
